Where a chain is given by its changes, count along the chain named. These are yes or no findings as the source states them, for the method shown. Some entries that bind do so weakly or less than the wild type.
Columns and labels:
Experiment in all cases: native gel or EMSA; native PAGE, Tris-glycine pH 8.3 without SDS, 4% stacking/12% resolving gels; ALK2 kinase forms with or without SUMO-BMPRII fusion protein or BMPRII kinase; both purified
[1] = molecular target: T1, ACVR1/ALK2 receptor kinase cytoplasmic domain, Q207D variant (Thr172-Cys509) (UniProt Q04771)
T1 sequence: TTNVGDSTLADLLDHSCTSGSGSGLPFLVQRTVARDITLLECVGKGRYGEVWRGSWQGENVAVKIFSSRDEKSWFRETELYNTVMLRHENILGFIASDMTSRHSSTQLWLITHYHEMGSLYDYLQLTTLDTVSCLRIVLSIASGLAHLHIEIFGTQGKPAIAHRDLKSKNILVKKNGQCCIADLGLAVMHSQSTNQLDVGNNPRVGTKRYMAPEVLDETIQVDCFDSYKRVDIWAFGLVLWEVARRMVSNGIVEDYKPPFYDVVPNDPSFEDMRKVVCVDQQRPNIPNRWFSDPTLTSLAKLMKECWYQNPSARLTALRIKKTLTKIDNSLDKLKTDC

Sequences of proteins named here, by UniProt entry; tags and fusion partners are left off. Residues count along the entry.
UniProt Q13873, residues 203-504: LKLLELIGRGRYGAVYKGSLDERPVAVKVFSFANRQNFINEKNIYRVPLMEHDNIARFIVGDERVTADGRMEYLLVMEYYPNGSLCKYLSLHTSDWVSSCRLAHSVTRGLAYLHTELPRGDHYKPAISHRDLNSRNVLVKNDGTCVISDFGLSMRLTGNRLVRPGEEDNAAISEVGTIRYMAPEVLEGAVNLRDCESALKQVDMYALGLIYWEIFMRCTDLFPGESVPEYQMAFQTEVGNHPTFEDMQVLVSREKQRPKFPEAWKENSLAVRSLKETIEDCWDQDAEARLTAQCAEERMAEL

[2] = molecular target: T2, ACVR1/ALK2 receptor kinase cytoplasmic domain, R206H mutant (Thr172-Cys509) (UniProt Q04771)
T2 sequence: T1 sequence with R35H, D36Q

[3] = molecular target: T3, ACVR1/ALK2 receptor kinase, 208 Ntrunc (Ile208-Cys509) (UniProt Q04771)
T3 sequence: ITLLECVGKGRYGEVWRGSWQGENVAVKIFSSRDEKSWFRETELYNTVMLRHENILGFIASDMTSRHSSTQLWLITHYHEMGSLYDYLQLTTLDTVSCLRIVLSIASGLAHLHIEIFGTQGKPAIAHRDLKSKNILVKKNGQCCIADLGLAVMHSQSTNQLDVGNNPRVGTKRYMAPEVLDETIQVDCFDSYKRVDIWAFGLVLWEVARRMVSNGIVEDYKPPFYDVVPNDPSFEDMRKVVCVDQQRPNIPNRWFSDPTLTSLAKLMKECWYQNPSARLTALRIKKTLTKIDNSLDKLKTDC

[4] = molecular target: T4, ACVR1/ALK2 receptor kinase cytoplasmic domain, wild type (Thr172-Cys509) (UniProt Q04771)
T4 sequence: T1 sequence with D36Q

Measured: binding

BMPRII kinase domain (SUMO fusion partner removed) (from UniProt Q13873 203-504) (domain or fragment)
binds weakly: [1] | [2] | [3] | [4]

SUMO-BMPRII kinase fusion protein (8xHis-SUMO-TEV-BMPRII kinase domain) (from UniProt Q13873 203-504) (domain or fragment)
binds weakly: [1] | [2] | [3] | [4]
